Taken from: PubChem BioAssay AID1224828 (NIAID, 2016)
The deposit covers about 17,000 reagents; shown is a part drawn at random. 762 of them (4.5%) count as active. 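Active calls include both raised and lowered p65 entry, mostly lowered; wells with fewer than 50 cells lack a z-score.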 The raw values are shown without normalisation.

Aim: 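Find genes required for NF-kappaB p65 moving into the nucleus after LPS in mouse macrophages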 (primary screen)
Cell system: mouse RAW264.7 G9 macrophage reporter cells (GFP-p65, Tnf promoter-mCherry)
Reagents: siRNA pool against mouse genes, 100 nM
Duration: 2 days siRNA transfection, then 40 min LPS before fixation
Conditions: LPS (Salmonella minnesota R595) at 10 ng/ml
Read-out: 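Imaged p65 nuclear translocation ratio, normalised to the plate median, converted to robust z-scores and averaged across two replicates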
Scale: p65 translocation robust z-score: higher = more nuclear NF-kappaB p65 after LPS than the plate median; nuclear/cytoplasmic p65 ratio: higher = more nuclear NF-kappaB p65
Hit rule: 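Called active when z exceeds 3.3 or falls under -1.56 (median of Tlr4 controls), giving activity score of at least 50; no calls for control wells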
Meaning of the calls: active = hit (p65 shift raised or lowered); inactive = no clear change

gene | p65 translocation robust z-score | nuclear/cytoplasmic p65 ratio, rep 1 | nuclear/cytoplasmic p65 ratio, rep 2 | low cell count flag | outcome
Gpr68 | -0.27 | 1.51 | 1.5 | enough cells to score | inactive
Tec | -1.56 | 1.37 | 1.19 | enough cells to score | inactive
Adgre1 | -0.8 | 1.39 | 1.47 | enough cells to score | inactive
Abhd15 | – | 1.47 | 1.35 | fewer than 50 cells per well; well left out of scoring | inactive
Slc52a3 | – | 1.39 | 2.47 | fewer than 50 cells per well; well left out of scoring | inactive
Or1j18 | 1.71 | 1.8 | 1.71 | enough cells to score | inactive
Zmym6 | 0.46 | 1.47 | 1.62 | enough cells to score | inactive
Pwwp3a | -0.59 | 1.33 | 1.48 | enough cells to score | inactive
Kctd9 | -1.7 | 1.34 | 1.18 | enough cells to score | active
Nipsnap2 | -0.86 | 1.49 | 1.32 | enough cells to score | inactive
Hyal1 | -0.77 | 1.36 | 1.25 | enough cells to score | inactive
Mup3 | -1.57 | 1.53 | 1.33 | enough cells to score | active
Rbm8a | 0.28 | 1.45 | 1.25 | enough cells to score | inactive
Ensa | -0.83 | 1.32 | 1.48 | enough cells to score | inactive
Atr | -0.14 | 1.37 | 1.36 | enough cells to score | inactive
Tmem44 | 0.72 | 1.51 | 1.66 | enough cells to score | inactive
Hdac6 | -0.24 | 1.33 | 1.41 | enough cells to score | inactive
Cdyl2 | 0.91 | 1.65 | 2.02 | enough cells to score | inactive
Plpp7 | 0.17 | 1.58 | 1.58 | enough cells to score | inactive
Tubgcp2 | 0.46 | 1.67 | 1.48 | enough cells to score | inactive
Vtcn1 | -0.07 | 1.57 | 1.83 | enough cells to score | inactive
Vmn1r38 | 0.19 | 1.4 | 1.26 | enough cells to score | inactive
Nanos3 | -0.38 | 1.73 | 1.53 | enough cells to score | inactive
Smad3 | -1.22 | 1.37 | 1.39 | enough cells to score | inactive
Il24 | -0.73 | 1.33 | 1.33 | enough cells to score | inactive
Epb41l2 | -0.3 | 1.61 | 1.37 | enough cells to score | inactive
Rpl32 | – | 1.28 | 1.1 | fewer than 50 cells per well; well left out of scoring | inactive
Letm2 | -0.69 | 1.54 | 1.6 | enough cells to score | inactive
Csnk2a1 | 0.57 | 1.74 | 1.49 | enough cells to score | inactive
Ssxb13 | 0.74 | 1.52 | 1.05 | enough cells to score | inactive
Slc8a3 | 2.83 | 1.86 | 1.5 | enough cells to score | inactive
Vwc2l | 0.03 | 1.42 | 1.49 | enough cells to score | inactive
Nif3l1 | 1.04 | 1.8 | 1.74 | enough cells to score | inactive
Clca2 | 0.05 | 1.64 | 1.62 | enough cells to score | inactive
4930579K19Rik | – | 1.13 | 1.34 | fewer than 50 cells per well; well left out of scoring | inactive
Tnp2 | – | 1.23 | 1.5 | fewer than 50 cells per well; well left out of scoring | inactive
Dlx4 | – | 1.14 | 1.04 | fewer than 50 cells per well; well left out of scoring | inactive
Calr | -0.85 | 1.48 | 1.49 | enough cells to score | inactive
Rad1 | 0.14 | 1.41 | 1.66 | enough cells to score | inactive
Or6k2 | 0.85 | 1.51 | 1.37 | enough cells to score | inactive
Alox5ap | 0.61 | 1.7 | 1.77 | enough cells to score | inactive
Pced1b | 0.39 | 1.71 | 1.66 | enough cells to score | inactive
Acy3 | – | 1.38 | 1.57 | fewer than 50 cells per well; well left out of scoring | inactive
Hoxd3 | -1.87 | 1.15 | 1.17 | enough cells to score | active
Dtd1 | 0.88 | 1.87 | 1.59 | enough cells to score | inactive
Zfp612 | – | 1.2 | 1.17 | fewer than 50 cells per well; well left out of scoring | inactive
Tmprss11g | -1.5 | 1.24 | 1.32 | enough cells to score | inactive
Eri3 | 0.64 | 1.45 | 1.3 | enough cells to score | inactive
Crtc3 | -0.51 | 1.41 | 1.87 | enough cells to score | inactive
Kif2b | -0.29 | 1.44 | 1.33 | enough cells to score | inactive
C230071H18Rik (retired record) | – | 1.15 | 1.39 | fewer than 50 cells per well; well left out of scoring | inactive
Smg9 | -1.76 | 1.28 | 1.22 | enough cells to score | active
Ccdc60 | – | 1.26 | 1.43 | fewer than 50 cells per well; well left out of scoring | inactive
Rin1 | 0 | 1.47 | 1.56 | enough cells to score | inactive
Tbpl1 | -0.4 | 1.5 | 1.43 | enough cells to score | inactive
Commd1 | 0.37 | 1.5 | 1.98 | enough cells to score | inactive
Nyap1 | -0.1 | 1.38 | 1.56 | enough cells to score | inactive
Gpt | 1.35 | 1.76 | 1.82 | enough cells to score | inactive
Meg3 | 0.21 | 1.76 | 1.49 | enough cells to score | inactive

6 of these entries, set out differently:
{"gene":"Ccdc60","nuclear/cytoplasmic p65 ratio, rep 1":1.26,"nuclear/cytoplasmic p65 ratio, rep 2":1.43,"low cell count flag":"fewer than 50 cells per well; well left out of scoring","outcome":"inactive"}
{"gene":"Rin1","p65 translocation robust z-score":0,"nuclear/cytoplasmic p65 ratio, rep 1":1.47,"nuclear/cytoplasmic p65 ratio, rep 2":1.56,"low cell count flag":"enough cells to score","outcome":"inactive"}
{"gene":"Tbpl1","p65 translocation robust z-score":-0.4,"nuclear/cytoplasmic p65 ratio, rep 1":1.5,"nuclear/cytoplasmic p65 ratio, rep 2":1.43,"low cell count flag":"enough cells to score","outcome":"inactive"}
{"gene":"Commd1","p65 translocation robust z-score":0.37,"nuclear/cytoplasmic p65 ratio, rep 1":1.5,"nuclear/cytoplasmic p65 ratio, rep 2":1.98,"low cell count flag":"enough cells to score","outcome":"inactive"}
{"gene":"Nyap1","p65 translocation robust z-score":-0.1,"nuclear/cytoplasmic p65 ratio, rep 1":1.38,"nuclear/cytoplasmic p65 ratio, rep 2":1.56,"low cell count flag":"enough cells to score","outcome":"inactive"}
{"gene":"Gpt","p65 translocation robust z-score":1.35,"nuclear/cytoplasmic p65 ratio, rep 1":1.76,"nuclear/cytoplasmic p65 ratio, rep 2":1.82,"low cell count flag":"enough cells to score","outcome":"inactive"}
